In paper PMC9959676 (Molecules, 2023) one finds Mean data, which are given here for nine compounds.

The nature of this data set: DPPH free radical scavenging assay. Conditions: mean absorbance at 517 nm, triplicate; 1.0 mL sample 0.5 mg/mL + 2 mL DPPH 0.2 mg/mL, 30 min. As to the method:
The DPPH assay was carried out to estimate the antioxidant potential among all the compounds [29]. Then, 2 mL (0.2 mg/mL in methyl alcohol) of DPPH was mixed with 1.0 mL (0.5 mg/mL in methyl alcohol) of the sample solution in a test tube. All the reaction tubes were covered with aluminum foil and kept aside for 30 min to complete the reaction. The activity was carried out in a dark room. […] A UV-visible spectrophotometer was employed to observe a reduction in the concentration of free radicals at 517 nm. The absorbance of the control (1.0 mL methanol + 2 mL DPPH solution) was also measured. All samples were evaluated in a triplicate manner, and the mean results were recorded. The standard antioxidant (ascorbic acid) was evaluated and set as a reference/standard. The percentage of inhibition (%) was calculated using the following formula in terms of scavenging activity(S):S (%) = [(Ab − Aa)/Ab] × 100(1) where Ab = Absorbance of control; and Aa = Absorbance of the test sample
(Loss of DPPH colour is used to gauge radical scavenging.)
`O=C1O[C@H]([C@@H](O)CO)C(O)=C1O` [Ascorbic acid, reference compound]: the Mean is given as 0.093.

With `CCCCC(=O)N(Cc1ccc(-c2ccccc2-c2nn[nH]n2)cc1)C(C(=O)Oc1ccc(Cl)cc1Cl)C(C)C` (stereo not drawn) [AV5, 2,4-dichlorophenyl 2-(N-((2′-(2H-tetrazol-5yl)-[1,1′-biphenyl]-4 yl)methyl)pentanamido)-3methyl butanoate], the Mean is given as 0.696.

For the compound `CCCCC(=O)N(Cc1ccc(-c2ccccc2-c2nn[nH]n2)cc1)C(C(=O)Oc1ccc(C=O)cc1)C(C)C` (stereo not drawn) [AV6, 4-formylphenyl2-(N-((2′-(2H-tetrazol-5-yl)-[1, 1′-biphenyl]-4yl)methyl)pentanamido)-3methyl butanoate], the Mean was determined as 0.613.

As to `CCCCC(=O)N(Cc1ccc(-c2ccccc2-c2nn[nH]n2)cc1)C(C(=O)O)C(C)C` (stereo not drawn) [AV0, 2-(N-((2′-(2H-tetrazole-5-yl)-[1,1′-biphenyl]-4yl)-methyl)-pentanamido)-3-methyl butanoic acid, reference compound], the Mean worked out at 0.919.

In the case of `CCCCC(=O)N(Cc1ccc(-c2ccccc2-c2nn[nH]n2)cc1)C(C(=O)Oc1ccc2ccccc2c1)C(C)C` (stereo not drawn) [AV10, naphthalen-2-yl 2-(N-((2′-(2H-tetrazol-5-yl)-[1,1′-biphenyl]-4 yl)methyl)pentanamido)-3methyl butanoate], the Mean came to 0.145.

Turning to `CCCCC(=O)N(Cc1ccc(-c2ccccc2-c2nn[nH]n2)cc1)C(C(=O)Oc1cc(C)ccc1C(C)C)C(C)C` (stereo not drawn) [AV8, 2-isopropyl-5-methylphenyl 2-(N-((2′-(2H-tetrazol-5yl)-[1, 1′-biphenyl]-4 yl)methyl)pentanamido)-3methyl butanoate], the Mean turned out to be 0.120.

Consider `CCCCC(=O)N(Cc1ccc(-c2ccccc2-c2nn[nH]n2)cc1)C(C(=O)OC(C(=O)c1ccccc1)c1ccccc1)C(C)C` (stereo not drawn) [AV1, 2-oxo-1,2-diphenylethyl 2-(N-((2′-(2H-tetrazol-5yl)-[1,1′-biphenyl]-4-yl)methyl)pentanamido)-3methyl butanoate], for which the Mean was 0.676.

In the case of `CCCCC(=O)N(Cc1ccc(-c2ccccc2-c2nn[nH]n2)cc1)C(C(=O)Oc1cccc2ccccc12)C(C)C` (stereo not drawn) [AV9, naphthalen-1-yl 2-(N-((2′-(2H-tetrazol-5-yl)-[1,1′-biphenyl]-4 yl)methyl)pentanamido)-3methyl butanoate], the Mean was 0.419.

Consider `CCCCC(=O)N(Cc1ccc(-c2ccccc2-c2nn[nH]n2)cc1)C(C(=O)Oc1ccc(C=O)cc1OC)C(C)C` (stereo not drawn) [AV2, 4-formyl-2-methoxyphenyl 2(N-((2′-(2H-tetrazole-5-yl)-[1,1′-biphenyl]-4yl)methyl)pentanamido)-3-methyl butanoate], for which the Mean is 0.102.
